# Screen size: about 53,000 sequences; about 3,700 (7%) were called active.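 The calls were made as follows: active = gene knockdowns whose robust z-score for IL-1 alpha signal is at least 2 or at most -2, so actives lie on both sides; inactive = the rest.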 The list shows a part of the results.
# Assay: Components of the Cytosolic LPS Sensing Pathway: Gene Identification via Genome-wide siRNA Screen;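 also: robust z of the log signal after scaling to non-targeting control siRNA wells of the plate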
# Conditions: RAW264.7 macrophages, IL-1a HTRF, actives lie on both sides, screened at 100 nM (by protocol), cells primed 5 h with Pam3CSK4 first
# In short: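 RAW264.7; siRNA 100 nM final, RNAiMAX, 48h 37 degrees C; Pam3CSK4 5 h; LipidA + TransIT-TKO 24 h; IL-1a HTRF; CellTiter-Glo viability; robust z vs negative-control median.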
row,Sequence,z-score
1,GGCAGGCAAUUCAAACAAUTT against Orm1,inactive: -1.24
2,GGGUUUCCUGCCUGCUCAUTT against Litaf,inactive: -0.361
3,CCAACAAAAAGAUUACAACTT against Akap7,inactive: 0.77
4,CCAGUAUGCACAAAUUUAATT against Uba3,inactive: -0.197
5,GGCAUUAAACACUUGCCAGTT against Fshr,inactive: -0.566
6,GGCCUUAAGGUCCAUUAUCTT against Zfp954,inactive: -0.854
7,GUACUUUCUUGAACCAGAGTT against Cacng7,inactive: -0.486
8,GGCGGAAACUGAUCAGCUUTT against Fosb,inactive: 0.234
9,GGAAGAGCUGGAGUCAGAUTT against Gemin8,inactive: -0.051
10,GGUACACUGAGUCUGGAAGTT against Lsm11,inactive: -1.2
11,CCAUACAAAAAGCUUAGACTT against Slit2,inactive: -0.689
12,GAAGAAACGGCACAGCAAGTT against Egr4,inactive: -0.0816
13,CCGUGUUACUAUACUCUGUTT against Pabpn1,inactive: -1.81
14,GGAUGGGCCAUAUUGUCCUTT against Rita1,inactive: -1.19
15,CGAUGCUAGAGAUUAAUCATT against Rdh10,inactive: -0.0597
16,CCAAGCCGCUGAACAAUUUTT against Rnase6,inactive: -0.468
17,CCGACGUGUUUGUUGUUGGTT against Gtf2i,inactive: -0.36
18,GGGACAUUGUGUUGGACGUTT against Srek1ip1,inactive: 1.24
19,CCCAAUAAAAUAUCACCAGTT against 1700074P13Rik,inactive: -0.445
20,GGAGAAUGCAAACAUCUCUTT against Slfn2,inactive: 0.424
21,GGAAAACCUAAUAAGGUUCTT against Iqce,active: 2.72
22,GCCUAACCAACAAUUCUACTT against Oas1b,inactive: 1.61

row,Sequence,z-score
1,GCACAAUGACGCACUUACCTT against Pik3r2,inactive: 0.693
2,GGAGUCAAAGCUCUUUAUUTT against Pitpnb,inactive: 0.0674
3,GGAUAUGGAUAAAUGACAUTT against Sbno1,inactive: -0.535
4,GCACUGCUAUUUACAAAAATT against Tex16,inactive: -1.73
5,GGCGACAUGUACAAUGACUTT against Mettl9,inactive: 0.721
6,CAAGAUGAUUAUUAGAGAGTT against Gm5142,inactive: -0.773
7,GGACUCUUACCACAUAAUGTT against 1110059E24Rik,inactive: -1.48
8,GGAUAUAAACCUCAUCCAATT against Mrgpre,inactive: 1.14
9,GGAGCUGAAGCCAUUCAACTT against Gpx6,active: 2.08
10,CCUUAUGUCCCUAAGGCUATT against Mbd3,inactive: -0.109
11,GCGGAAAUCUAAUUGCUUGTT against Kat5,inactive: -0.0418
12,GGGCGAUGGAAAGCCUUUUTT against Olfr354,inactive: 0.301
13,GAUGUGGGUUUUCUCUAACTT against Ly6g6c,inactive: 0.602
14,GCCAUUUAUCCGGUACGACTT against Actr3b,inactive: 0.409
15,GGAGAUGGAUUCCAAGGUATT against Rnf40,inactive: 0.378
16,GGACAAAAAUGGCAAUACUTT against A26c3,inactive: 0.509
17,CGGGCUCAGGUAAAACUCUTT against Ddx31,inactive: -0.217
18,GGUUCUGAACAAAAAACUCTT against Pola2,inactive: 0.167
19,GGGUUCUGCUAUGUUAAUGTT against Hdac2,inactive: 0.221
20,CCUACAGGAUCAUAGUUAATT against Nicn1,inactive: -1.04
21,GGCCAAAUUUGGGUUUGGATT against Dpy19l3,inactive: -0.367
22,GGAGAUAUUCCAGAUCUUUTT against Picalm,inactive: 0.305

# Some of the entries so far, with bars between the fields.
row | Sequence | z-score
6 | GGCCUUAAGGUCCAUUAUCTT against Zfp954 | inactive: -0.854
7 | GUACUUUCUUGAACCAGAGTT against Cacng7 | inactive: -0.486
8 | GGCGGAAACUGAUCAGCUUTT against Fosb | inactive: 0.234
9 | GGAAGAGCUGGAGUCAGAUTT against Gemin8 | inactive: -0.051
10 | GGUACACUGAGUCUGGAAGTT against Lsm11 | inactive: -1.2

# More entries.

row,Sequence,z-score
1,GGAUUUGAUGCUAAAUGAATT against Pcdhb13,inactive: -0.635
2,CCACUGAUGCUUCCUACUUTT against Flvcr2,inactive: -0.895
3,GGACUCUUGGAACUAUUCUTT against Kcnu1,inactive: -0.833
4,GGAAAGAAACAGAAGCACATT against Il21,inactive: -0.511
5,CCGAGUACCAAGAUUCUGATT against Doxl1,inactive: 0.295
6,CGGAGCUGUCUGAUUGUCGTT against Lrrc8b,inactive: -1.61
7,GAGUGAUGCGCAUUUCGAGTT against Sf3b5,active: -2.53
8,CGAUGUGGAAAGUCGGUAUTT against Csrp3,inactive: 0.386
9,GGGACCAUUCUGAAGAUGATT against Acot7,inactive: -1.76
10,GGAAGAGGAGACCACUGAUTT against Zfp428,inactive: -0.446
11,GGAUUCAUGAAAUAAGUCATT against Zfp426,inactive: -0.603
12,GGUUAUUAAGGAUAAACUGTT against Cops5,active: 2.28
13,CGGUGAUCAAAGAUAAGAATT against Zkscan5,inactive: -0.936
14,GGUUAUUCAUGAUGUUUGCTT against Fbn1,inactive: -0.529
15,GCCAUUUUGUCAAUUCACCTT against Txndc12,inactive: -1.24
16,GGUACCUGACAAUGAUGAGTT against Etv1,inactive: -1.31
17,GGCUGAAGUUACUUUGGAUTT against Nup98,active: -2.03
18,GGUGCUAUCUGAGAGGUACTT against Triobp,inactive: -0.201
19,GGGAAAGAUAAAUGUUUCCTT against Gucy1b1,inactive: 1.89
20,GCCAACGAACUUUUUCGUATT against Zfp36l2,inactive: 0.208
21,CGCACAUGCCACUUCCACATT against Oxsm,inactive: 0.189
22,GGGUAUAUCAGGGCCAAGUTT against Col4a5,inactive: 0.51

row,Sequence,z-score
1,GGUUCCUCACAAGCAUUCUTT against Olfr818,inactive: 0.276
2,GGAAGUCCUAUGAUUAAACTT against Zfand1,inactive: -0.633
3,GGCACUGAAACUGCUCCUGTT against Taar5,inactive: -1.4
4,CCUCAACCGGCAGUUCUUGTT against Uba2,inactive: -0.574
5,GGUUACCCAACUUGAAGGATT against Parp16,inactive: 1.37
6,GGAGAGAGGAUAAGUCACATT against Jsrp1,inactive: -1.44
7,GGAGUGGUUUGAGGACAGCTT against Ppfibp2,inactive: 0.423
8,GCUAUUGCUCGCAUCAAUGTT against Prps1l1,inactive: 0.989
9,GGUAUUUGUCUGUAAUUUGTT against Ddx50,inactive: 0.421
10,GGCUAGCAUUAGCCACAGATT against Enpp3,active: -2.33
11,GGGCAGCUUUGAGAAAGCCTT against Rrad,inactive: -1.38
12,GGAGGACAAACAGCUUCAATT against Psmd2,inactive: -1.43
13,GCCCACCAAUAUUUUGCUUTT against Stk16,inactive: -0.383
14,GGAACAACUGAGAAGCACCTT against H2bc4,inactive: 1.02
15,GGAAUUACUCACAUGCUAATT against Tlr7,inactive: 0.98
16,CCUGUCUGUUUGAGGACGUTT against Adora2a,inactive: -0.701
17,GGAUUCAAGAAGUAAAUCCTT against Uty,inactive: -0.901
18,GGACUAGACUGUGAAAUGATT against Satb2,inactive: -0.443
19,GCUUUACUGAGAUUGAGCGTT against Arfgap2,inactive: -1.98
20,GGAUUAUGCCCUUCAUUGGTT against Rbbp7,inactive: -0.572
21,GGACGAUGGAAUUAUGAGGTT against Ift80,inactive: 0.368
22,GGGCAGGACUUUACCUUUATT against Iqcg,inactive: 1.57

row,Sequence,z-score
1,GGAGAUGGCCACCUAUUUGTT against Csnk1g2,inactive: -0.325
2,GCCAACUCAAGCAAUCUGCTT against Tnks,inactive: 0.378
3,GCCUUCUUACCUGUUAGACTT against Bud23,inactive: -0.163
4,GUGCUCAGUUCCAAUUCCATT against Neurog3,inactive: -0.282
5,GGCCUAUCUUCUUUACAUATT against Ctbs,inactive: 0.348
6,GCAUCCUUCACUCAAAUAUTT against Aspa,active: 3.17
7,GGAGUAGCCACUGAGGACUTT against Rif1,inactive: -0.341
8,GGCCUAAUUUGAAUAACACTT against 4933436I01Rik,inactive: -1.45
9,GCCAUCGCCAGGGAACAAATT against Trim12c,inactive: -0.721
10,GGCUCUGAAAGAGCUAAAATT against Lrrc57,inactive: 1.66
11,GGAGGAAAUGAAAACCUUUTT against Cep89,inactive: -0.823
12,GGCUGUAAUGAGGACUGAUTT against Ss18l2,active: 3.25
13,GGGUCAGAACACGUACGAGTT against Gnaz,inactive: 1.06
14,GGCAAAACUCACACUUACUTT against Poldip2,inactive: -0.0142
15,CGCCGUUGGUUUGCCAGAATT against Defb40,inactive: 0.454
16,GGGACUGGCACCAUUUGUUTT against Cetn4,inactive: -0.289
17,GGUUAAUGAUAAGAACCCATT against Hgs,inactive: 0.156
18,GCCCAACCUGUAUUGGAUCTT against Icosl,inactive: -0.887
19,CCUACGACAACUCAGACCUTT against Ecscr,inactive: -0.152

# — PubChem BioAssay AID1508600 (Functional Genomics Laboratory (NCATS/FGL), 2020)
